Results: the supplement of paper PMC6078165

Test system: Hs578T
Experiment: relative JC-1 red fluorescence (viability) vs pre-drug, coculture with fibroblast (fraction); higher = more viable cancer cells
Method: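 JC-1 labelled TNBC cells cocultured 1:1 (1,500 cells each) with CellTrace Violet stained primary or stromal fibroblasts in 384-well plates in FluoroBrite medium, treated with one of 42 anticancer drugs at 0.1, 1, 10 or 100 uM. JC-1 red fluorescence (mitochondrial integrity in cancer cells only) was read by plate reader every 8 h for 72 h. Values are normalised to each well's pre-drug value. The stock of one drug was tenfold lower, so its dose labels may be too high.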

CN(C)CCOc1ccc(/C(=C(/CCCl)c2ccccc2)c2ccccc2)cc1 [Toremifene]
relative JC-1 red fluorescence
Conditions	8 h	16 h	24 h	32 h	40 h	48 h	56 h	64 h	72 h
0.1 µM	0.8897	0.7963	0.757	0.723	0.65376	0.617	0.58113	0.534	0.5178
1 µM	0.9254	0.849	0.792	0.751	0.691	0.645	0.601	0.558	0.532
10 µM	0.967	0.96	0.923	0.9086	0.8956	0.8761	0.8711	0.834	0.824
100 µM	0.485	0.38	0.39	0.356	0.312	0.272	0.252	0.213	0.184

relative JC-1 red fluorescence
Conditions	8 h	16 h	24 h	32 h	40 h	48 h	56 h	64 h	72 h
0.1 µM, coculture fibroblast: C12385	0.821	0.707	0.614	0.54276	0.476	0.428	0.392	0.372	0.359
0.1 µM, coculture fibroblast: H6013	0.819	0.7687	0.715	0.6816	0.644	0.62	0.594	0.595	0.561
0.1 µM, coculture fibroblast: H6019	0.778	0.695	0.647	0.559	0.515	0.485	0.457	0.437	0.416
0.1 µM, coculture fibroblast: H6076	0.917	0.855	0.808	0.787	0.739	0.737	0.713	0.708	0.707
0.1 µM, coculture fibroblast: H6231	0.9168	0.786	0.704	0.664	0.5921	0.566	0.518	0.504	0.484
0.1 µM, coculture fibroblast: HADF	0.854	0.779	0.703	0.654	0.608	0.578	0.547	0.539	0.5192
0.1 µM, coculture fibroblast: HCFa	0.823	0.741	0.669	0.618	0.551	0.52	0.486	0.467	0.423
0.1 µM, coculture fibroblast: HCPF	0.911	0.812	0.764	0.7399	0.674	0.6568	0.628	0.597	0.577
0.1 µM, coculture fibroblast: HHSteC	0.865	0.75	0.681	0.613	0.548	0.518	0.484	0.462	0.432
0.1 µM, coculture fibroblast: HMF	0.858	0.761	0.706	0.6822	0.629	0.602	0.572	0.558	0.54
0.1 µM, coculture fibroblast: HPFa	0.9099	0.81	0.7252	0.657	0.595	0.554	0.506	0.475	0.43
0.1 µM, coculture fibroblast: HUF	0.843	0.7225	0.7027	0.5994	0.545	0.5116	0.4852	0.48266	0.479
0.1 µM, coculture fibroblast: Hs27A	0.909	0.8197	0.7888	0.748	0.689	0.677	0.636	0.629	0.578
0.1 µM, coculture fibroblast: Hs343T	0.895	0.786	0.731	0.71	0.64	0.615	0.579	0.549	0.55
0.1 µM, coculture fibroblast: WS1	0.841	0.731	0.66	0.557	0.489	0.467	0.435	0.428	0.424
1 µM, coculture fibroblast: C12385	0.853	0.763	0.7079	0.63	0.5652	0.531	0.5051	0.488	0.478
1 µM, coculture fibroblast: H6013	0.9068	0.854	0.822	0.7997	0.763	0.74	0.7236	0.7089	0.6756
1 µM, coculture fibroblast: H6019	0.8045	0.722	0.673	0.579	0.531	0.493	0.451	0.427	0.396
1 µM, coculture fibroblast: H6076	0.917	0.848	0.81136	0.7856	0.748	0.744	0.713	0.712	0.709
1 µM, coculture fibroblast: H6231	0.898	0.7817	0.738	0.858	0.822	0.813	0.772	0.758	0.764
1 µM, coculture fibroblast: HADF	0.9257	0.8821	0.845	0.813	0.777	0.762	0.734	0.726	0.706
1 µM, coculture fibroblast: HCFa	0.887	0.842	0.81	0.761	0.687	0.657	0.614	0.587	0.539
1 µM, coculture fibroblast: HCPF	0.905	0.815	0.7816	0.778	0.718	0.697	0.682	0.641	0.632
1 µM, coculture fibroblast: HHSteC	0.934	0.859	0.813	0.766	0.709	0.672	0.638	0.607	0.561
1 µM, coculture fibroblast: HMF	0.916	0.869	0.85	0.857	0.815	0.802	0.77	0.767	0.754
1 µM, coculture fibroblast: HPFa	0.929	0.883	0.784	0.723	0.655	0.612	0.56	0.529	0.476
1 µM, coculture fibroblast: HUF	0.8817	0.7974	0.74	0.631	0.562	0.514	0.472	0.451	0.434
1 µM, coculture fibroblast: Hs27A	0.9152	0.901	0.857	0.8445	0.799	0.789	0.766	0.769	0.723
1 µM, coculture fibroblast: Hs343T	0.93133	0.836	0.8	0.807	0.748	0.731	0.69	0.671	0.665
1 µM, coculture fibroblast: WS1	0.835	0.736	0.678	0.601	0.548	0.533	0.504	0.4909	0.4891
10 µM, coculture fibroblast: C12385	0.864	0.871	0.821	0.867	0.866	0.872	0.875	0.858	0.845
10 µM, coculture fibroblast: H6013	0.9181	0.969	0.966	0.969	0.966	0.963	0.958	0.96	0.928
10 µM, coculture fibroblast: H6019	0.813	0.911	0.789	0.827	0.8446	0.85	0.75	0.852	0.809
10 µM, coculture fibroblast: H6076	0.827	0.844	0.785	0.748	0.797	0.769	0.891	0.9663	0.9384
10 µM, coculture fibroblast: H6231	0.977	0.908	0.898	0.973	0.949	0.955	0.923	0.91	0.886
10 µM, coculture fibroblast: HADF	0.9527	0.758	0.781	0.765	0.7836	0.855	0.785	0.792	0.858
10 µM, coculture fibroblast: HCFa	0.931	0.856	0.801	0.856	0.806	0.878	0.868	0.907	0.932
10 µM, coculture fibroblast: HCPF	0.9902	0.837	0.848	0.773	0.809	0.898	0.729	0.7663	0.858
10 µM, coculture fibroblast: HHSteC	0.9328	0.9437	0.9636	0.911	0.9066	0.903	0.829	0.891	0.911
10 µM, coculture fibroblast: HMF	0.968	0.928	0.839	0.847	0.9818	0.975	0.9487	0.924	0.902
10 µM, coculture fibroblast: HPFa	0.9182	0.9062	0.9033	0.912	0.907	0.901	0.884	0.8778	0.8416
10 µM, coculture fibroblast: HUF	0.8883	0.831	0.829	0.7887	0.751	0.7204	0.682	0.654	0.629
10 µM, coculture fibroblast: Hs27A	0.9406	0.952	0.898	0.841	0.845	0.913	0.856	0.819	0.898
10 µM, coculture fibroblast: Hs343T	0.869	0.915	0.9934	0.977	0.9358	0.9388	0.91254	0.8688	0.854
10 µM, coculture fibroblast: WS1	0.847	0.873	0.837	0.87	0.862	0.877	0.879	0.865	0.847
100 µM, coculture fibroblast: C12385	0.421	0.301	0.286	0.21	0.167	0.138	0.115	0.0939	0.0763
100 µM, coculture fibroblast: H6013	0.447	0.336	0.315	0.282	0.242	0.216	0.187	0.167	0.126
100 µM, coculture fibroblast: H6019	0.463	0.348	0.356	0.282	0.249	0.23	0.203	0.188	0.167
100 µM, coculture fibroblast: H6076	0.512	0.436	0.4199	0.3936	0.34191	0.313	0.27	0.232	0.194
100 µM, coculture fibroblast: H6231	0.562	0.471	0.418	0.39	0.335	0.304	0.263	0.234	0.205
100 µM, coculture fibroblast: HADF	0.44	0.312	0.2589	0.2185	0.188	0.1588	0.1279	0.111	0.0727
100 µM, coculture fibroblast: HCFa	0.5743	0.4403	0.417	0.377	0.3343	0.3071	0.2732	0.255	0.2043
100 µM, coculture fibroblast: HCPF	0.559	0.462	0.397	0.378	0.319	0.296	0.283	0.221	0.192
100 µM, coculture fibroblast: HHSteC	0.436	0.339	0.323	0.284	0.254	0.224	0.194	0.172	0.132
100 µM, coculture fibroblast: HMF	0.443	0.33	0.319	0.298	0.25	0.222	0.188	0.154	0.127
100 µM, coculture fibroblast: HPFa	0.499	0.403	0.365	0.334	0.3	0.271	0.239	0.215	0.174
100 µM, coculture fibroblast: HUF	0.511	0.483	0.479	0.392	0.342	0.309	0.272	0.24	0.216
100 µM, coculture fibroblast: Hs27A	0.572	0.457	0.397	0.357	0.314	0.302	0.265	0.248	0.197
100 µM, coculture fibroblast: Hs343T	0.502	0.389	0.4	0.383	0.335	0.304	0.274	0.234	0.207
100 µM, coculture fibroblast: WS1	0.448	0.365	0.355	0.27	0.223	0.197	0.167	0.147	0.125

Values are relative to the signal before dosing, not to a vehicle control; the signal also falls without drug.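 Fibroblast labels denote human fibroblasts, mainly primary ones from uterus (C12385, HUF), lung (H6013), bone (Hs27A), adrenal (HADF) and skin (WS1), plus mammary HMF and breast cancer-associated Hs343T. Cancer cells are basal-like or mesenchymal-like triple-negative breast cancer lines. A hit is a response shift exceeding 3x replicate standard deviation. The tissue of the other fibroblasts is not given here.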
